Primary screen of a compound library

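Whole-parasite assay of Trypanosoma brucei over 72 hours; the read-out is not stated. Concentration: 30 µM. Higher reads as stronger inhibition (inferred: compounds with an IC50 in retests scored well above the rest). Values scatter widely below zero; nearly all retest evidence comes from the higher of the two concentrations used. About 64,000 compounds were tested under these conditions; 1.5% (about 940) showed 50% or more at least once.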

Results are given as percent effect. How 0% and 100% were set is not recorded. Most values in the screen are low, and negative values occur. This is an unselected part of the compounds tested.

Compound: COC(=O)COn1c(SC)nc2ccccc2c1=O
Percent Effect: -62.52

Compound: Fc1cccc(-c2n[nH]cc2-c2nc(CN3CCOCC3)no2)c1
Percent Effect: -13.86

Compound: CC(=O)Nc1ccn(Cc2ccccc2)n1
Percent Effect: -15.92

Compound: Cc1cc(CN[C@@H](C)C(N)=O)c(C)s1
Percent Effect: -12.51

Compound: CC(CNCC1(S(C)(=O)=O)CCOCC1)c1ccc(F)cc1 (stereo not drawn)
Percent Effect: -41.7

Compound: CC(C)N(Cc1ccccn1)C(=O)CCC(=O)c1ccccc1
Percent Effect: -3.75

Compound: O=C(NCCNc1cnccn1)C1CCN(C(=O)N2CCCC2)CC1
Percent Effect: 4.707

Compound: Cc1c[nH]c(C(=O)N2CCn3nc(C(=O)NC4CC4)cc3C2)n1
Percent Effect: 2.615

Compound: Cc1ccc(CNC(=O)CCSCc2csc(C)n2)cn1
Percent Effect: -7.644

Compound: CC(=O)c1cn(CCC(=O)NCCC(=O)O)c2ccccc12
Percent Effect: 6.233

Compound: Cl.O=C(CN1CCC[C@@H]1C(=O)O)NCCOc1cccc(C(F)(F)F)c1
Percent Effect: -3.9

Compound: Cc1cc(C)cc(C(=O)Nc2cccc(CN3CCCC3C(N)=O)c2)c1 (stereo not drawn)
Percent Effect: 13.21

Compound: [H][C@@]12COC[C@]1(COC)CN(Cc1cccnc1OC)C2
Percent Effect: 14.36

Compound: Cl.c1cnc2c(c1)cc([C@@H]1CCCO1)n2CCN1CCOCC1
Percent Effect: -1.684

Compound: CCC(C)(NCC(=O)N(c1ccccc1)C(C)C)c1nc(C)cs1 (stereo not drawn)
Percent Effect: -21.19

Compound: COCC1CN(C(=O)CC2=CCCCC2)Cc2nnn(CC3CC3)c21 (stereo not drawn)
Percent Effect: -44.08

Compound: NC(=O)c1ccc2c(c1)nc1n2CCN(Cc2ccco2)C1
Percent Effect: 17.71

Compound: Cn1cc(N2CC3(CCN(CC4CC4)CC3)OCC2=O)cn1.O=C(O)C(F)(F)F
Percent Effect: -14.55

Compound: CC1CC(=O)c2cnc3nc(N4CCOCC4)[nH]c(=O)c3c2C1 (stereo not drawn)
Percent Effect: -4.511

Compound: COc1cc2c(cc1OC)C(=O)C(Sc1nncn1C)C2 (stereo not drawn)
Percent Effect: -41.96

Compound: O=C1COC2(CCN(C(=O)[C@H]3CCCO3)CC2)CN1Cc1ccccn1
Percent Effect: -24.77

Compound: CC(=O)N1CCN(C(=O)c2[nH]nnc2Nc2ccccc2F)CC1
Percent Effect: -21.11

Compound: O=C(C[S+]([O-])Cc1cccc(Cl)c1)NC1CCCC1 (stereo not drawn)
Percent Effect: -4.304

Compound: Cc1ccc(CN2CCn3cc(CN4CCN(C)CC4)nc3C2)cc1.O=C(O)C(F)(F)F.O=C(O)C(F)(F)F.O=C(O)C(F)(F)F
Percent Effect: -3.044

Compound: CC1CCCCN1C1CN(C(=O)c2sccc2S(N)(=O)=O)C1 (stereo not drawn)
Percent Effect: -39.77

Compound: O=C(O)C(F)(F)F.O=C(O)C(F)(F)F.O=C(O)C(F)(F)F.[H][C@@]12CN(Cc3ccncc3)C[C@]1([H])[C@H](OC)CCN2Cc1cccs1
Percent Effect: -33.43

Compound: Cn1cc(-c2cnc(N3CCOCC3)nc2)cc1C(=O)N1CCCC1
Percent Effect: -31.2

Compound: CCc1nc(C)cn1C(=O)Nc1ccccc1
Percent Effect: -2.499

Compound: N#Cc1ccc(OCCN2CCNC(=O)C2c2cccs2)cc1 (stereo not drawn)
Percent Effect: -7.148

Compound: O=C(O)C(F)(F)F.[H][C@]12CCN(c3cccnc3)C[C@@]1([H])CN(CC1CC1)C2
Percent Effect: -37.06

Compound: COCCNC(=O)c1cn(C(C)(C)C)c2ncccc12
Percent Effect: -8.657

Compound: CN(Cc1ccon1)C(=O)CN1C(=O)OC(C)(C)C1=O
Percent Effect: -151.6

Compound: O=C(O)C(F)(F)F.O=C(O)C(F)(F)F.[H][C@@]12CN(Cc3ccc(F)cc3)C[C@]1([H])OCCN2Cc1c(C)noc1C
Percent Effect: -10.74

Compound: Cc1nc(CN(C)CC2CCCN(CCc3ccc(Cl)cc3)C2)no1 (stereo not drawn)
Percent Effect: -3.337

Compound: CCn1nc(C)c(CNCCn2cc(C)cn2)c1C
Percent Effect: -25.33

Compound: COc1c(Cl)cccc1NCc1csc(C)n1
Percent Effect: 9.364

Compound: CN(C)c1cccc(C(=O)Nc2cnn(CC(N)=O)c2)c1
Percent Effect: -16.15

Compound: CC(C)CCN1CCN(c2ncnc3nc(N)ccc23)CC1
Percent Effect: -43.83

Compound: CN(C)CCOCC1CN(Cc2ccc(F)cc2)Cc2nnn(C)c21.O=C(O)C(F)(F)F.O=C(O)C(F)(F)F (stereo not drawn)
Percent Effect: -50.03

Compound: COc1ccc(CC(C)Nc2cccc(SC)c2)cc1 (stereo not drawn)
Percent Effect: -39.07

Compound: CC(C)(CNC1CCCN(Cc2ccccc2F)C1)CN1CCOCC1 (stereo not drawn)
Percent Effect: -14.34

Compound: Cc1ccc(S(=O)(=O)N2CCOc3ccccc32)cc1C(N)=O
Percent Effect: 4.684

Compound: COCCN(C)C[C@@H]1CN(Cc2ccnc3ccccc23)C[C@@H]1CO
Percent Effect: -38.21

Compound: CCOc1ccc(CNCCCn2ccnc2)cc1Cl.Cl.Cl
Percent Effect: -8.053

Compound: O=C(C1CCC1)N1CCOc2cccc(F)c21
Percent Effect: -13.83

Compound: CCN(CC)c1ccc2ccc(C(=O)O)cn12
Percent Effect: -29.85

Compound: CC(=O)NCCCC(=O)N1CCC(Sc2cccc(C)c2)CC1
Percent Effect: -25.11

Repeated from the top, 3 entries:

{"compound": "COC(=O)COn1c(SC)nc2ccccc2c1=O", "Percent Effect": -62.52}
{"compound": "Fc1cccc(-c2n[nH]cc2-c2nc(CN3CCOCC3)no2)c1", "Percent Effect": -13.86}
{"compound": "CC(=O)Nc1ccn(Cc2ccccc2)n1", "Percent Effect": -15.92}

From ChEMBL document CHEMBL3988442, “University of Dundee, Small-Polar-MMV Screening Library” (2021).